Laboratory results: PubChem BioAssay AID686943 (Drosophila RNAi Screening Center, 2013)
The screen tested about 23,000 reagents; below is an unselected part of those with a known target gene and a result. 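Extra replicates exist only for a retested subset of genes; insulin dose and duration not given; both raised and lowered dpERK matter.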 The numbers tell different reagents against one gene apart. A plus sign joins genes that one reagent is predicted to hit. Not all columns of the deposit are shown. Not stated in the record: the amount of reagent, the time to read-out.

Test: 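Search across the genome for regulators of signalling from receptor tyrosine kinase to ERK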 (primary screen)
Cells: Drosophila S2R+ haemocyte-like cells expressing YFP-tagged ERK (Rolled)
Reagent: long dsRNA against Drosophila genes
Treatment: insulin stimulation versus unstimulated cells; dose and duration not given
Detection: 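Per-plate z-scores of phospho-ERK immunostaining normalised to YFP-tagged ERK, measured with and without insulin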
Direction: replicate 1, z-score of dpERK with insulin: higher = more active ERK per ERK-YFP after insulin

no.	target gene	dsRNA no.	replicate 1, z-score of dpERK with insulin
1	Trs23	1	0.78
2	CG6959	1	0.56
3	Psf1	1	0.15
4	CG33225	1	-0.17
5	CG10301	1	-0.91
6	CG2901	1	-0.48
7	CG12111	1	0.4
8	Clk	1	-0.75
9	CG14629	1	-1.59
10	Obp85a	1	0.15
11	Prp4k	1	1.92
12	h-cup + Rbp	1	0.26
13	RpL23A	1	-1.21
14	RpL23A	2	0.21
15	Edg91	1	0.65
16	CG13048	1	0.05
17	SCOT	1	0.23
18	CG1791	1	0.13
19	CG32809	1	0.11
20	CG32809	2	0.01
21	Sf3b2	1	1.5
22	Ten-a	1	0.54
23	Ten-a	2	-3.97
24	Ten-a	3	0.11
25	Ten-a	4	1.28
26	Ten-a	5	0.31
27	Ten-a	6	0.4
28	Ten-a	7	0.43
29	Ten-a	8	0.22
30	Cys	1	0.85
31	Fur1	1	1.06
32	Fur1	2	0.94
33	CG32074	1	-0.26
34	CG34242	1	0.45
35	CG14841	1	-0.26
36	CG43367 + asRNA:CR32252	1	-0.27
37	CG43693	1	0.43
38	CG43693	2	0.08
39	Exo84	1	-0.75
40	sgl	1	1.5
41	Vha14-2	1	0.79
42	Tsp66E	1	0.39

Reprinted from the listing for reference:
no.	target gene	dsRNA no.	replicate 1, z-score of dpERK with insulin
7	CG12111	1	0.4
8	Clk	1	-0.75
9	CG14629	1	-1.59
10	Obp85a	1	0.15
11	Prp4k	1	1.92
12	h-cup + Rbp	1	0.26
13	RpL23A	1	-1.21
14	RpL23A	2	0.21
15	Edg91	1	0.65
16	CG13048	1	0.05
17	SCOT	1	0.23
18	CG1791	1	0.13

Continued.
no.	target gene	dsRNA no.	replicate 1, z-score of dpERK with insulin
43	atk	1	-0.27
44	atk	2	0.29
45	l(2)05714	1	0.77
46	enc	1	0.03
47	MFS10	1	0.13
48	RagC-D	1	0.22
49	CG14500	1	-0.25
50	CG34200	1	1.27
51	CG4830	1	-0.16
52	CG7656	1	0.97
53	CG5262	1	-0.5
54	drongo	1	-0.66
55	CG4629	1	-0.36
56	CG4678	1	0.59
57	CG4678	2	0.18
58	aurA	1	0.46
59	CR42745 (retired record)	1	0.38
60	Ibf1	1	0.58
61	ca	1	-1.12
62	ca	2	0.16
63	ca	3	-0.66
64	ppk3	1	0.35
65	CG13502	1	0.13
66	CG15905	1	0.34
67	dwg	1	0.74
68	CG13438	1	-0.88
69	lncRNA:CR32730	1	0.68
70	mthl12	1	-0.78
71	CG11722	1	-0.33
72	CG32564	1	0.85
73	PAN2	1	-0.55
